This is one part of the list. This is a noisy data set.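 Many melting curves are irregular; where none melted, Tm was taken as 64 °C.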

Sequences of proteins named here, by UniProt entry; tags and fusion partners are left off. A change or cut given only in a name is not applied to a line headed by its entry.
UniProt O75935, whole entry: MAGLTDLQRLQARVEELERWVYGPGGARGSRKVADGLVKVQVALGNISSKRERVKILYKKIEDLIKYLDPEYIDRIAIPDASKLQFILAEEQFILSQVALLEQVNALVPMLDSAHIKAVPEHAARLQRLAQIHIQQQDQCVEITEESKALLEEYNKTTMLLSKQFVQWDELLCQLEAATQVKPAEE
UniProt P04350, whole entry: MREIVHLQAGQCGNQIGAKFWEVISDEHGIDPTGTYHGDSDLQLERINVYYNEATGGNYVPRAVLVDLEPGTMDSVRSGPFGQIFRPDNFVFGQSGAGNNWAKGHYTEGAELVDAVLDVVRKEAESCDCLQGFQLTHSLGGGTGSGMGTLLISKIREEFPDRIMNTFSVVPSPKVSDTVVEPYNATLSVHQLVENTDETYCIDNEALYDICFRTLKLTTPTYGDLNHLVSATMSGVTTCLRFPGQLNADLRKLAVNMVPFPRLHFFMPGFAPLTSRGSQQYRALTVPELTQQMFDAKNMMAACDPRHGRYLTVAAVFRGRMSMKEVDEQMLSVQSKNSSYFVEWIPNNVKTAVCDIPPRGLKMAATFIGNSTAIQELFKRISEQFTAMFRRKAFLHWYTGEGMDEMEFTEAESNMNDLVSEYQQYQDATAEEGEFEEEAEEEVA
UniProt O95544: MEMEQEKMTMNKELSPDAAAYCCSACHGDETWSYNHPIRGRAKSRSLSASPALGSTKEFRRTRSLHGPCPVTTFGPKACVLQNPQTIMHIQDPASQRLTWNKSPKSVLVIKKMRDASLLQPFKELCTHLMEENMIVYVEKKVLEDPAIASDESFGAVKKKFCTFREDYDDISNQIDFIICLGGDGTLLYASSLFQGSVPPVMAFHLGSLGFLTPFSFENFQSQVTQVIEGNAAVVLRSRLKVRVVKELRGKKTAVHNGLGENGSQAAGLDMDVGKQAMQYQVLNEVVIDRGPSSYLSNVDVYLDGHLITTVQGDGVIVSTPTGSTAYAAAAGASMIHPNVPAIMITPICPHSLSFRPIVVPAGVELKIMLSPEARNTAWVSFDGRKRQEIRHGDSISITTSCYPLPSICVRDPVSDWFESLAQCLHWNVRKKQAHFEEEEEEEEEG
UniProt O96007: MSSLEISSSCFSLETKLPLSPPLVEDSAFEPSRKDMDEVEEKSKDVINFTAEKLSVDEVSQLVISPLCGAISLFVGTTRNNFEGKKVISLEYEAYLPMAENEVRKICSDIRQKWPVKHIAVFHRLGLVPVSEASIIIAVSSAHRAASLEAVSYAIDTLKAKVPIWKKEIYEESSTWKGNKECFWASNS
UniProt O75934: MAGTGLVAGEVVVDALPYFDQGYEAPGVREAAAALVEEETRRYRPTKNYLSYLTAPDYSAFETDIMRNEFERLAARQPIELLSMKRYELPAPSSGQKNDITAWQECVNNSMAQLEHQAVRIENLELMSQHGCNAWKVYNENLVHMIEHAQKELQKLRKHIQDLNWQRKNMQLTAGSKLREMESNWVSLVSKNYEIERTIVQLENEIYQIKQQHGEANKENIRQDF
UniProt O96028: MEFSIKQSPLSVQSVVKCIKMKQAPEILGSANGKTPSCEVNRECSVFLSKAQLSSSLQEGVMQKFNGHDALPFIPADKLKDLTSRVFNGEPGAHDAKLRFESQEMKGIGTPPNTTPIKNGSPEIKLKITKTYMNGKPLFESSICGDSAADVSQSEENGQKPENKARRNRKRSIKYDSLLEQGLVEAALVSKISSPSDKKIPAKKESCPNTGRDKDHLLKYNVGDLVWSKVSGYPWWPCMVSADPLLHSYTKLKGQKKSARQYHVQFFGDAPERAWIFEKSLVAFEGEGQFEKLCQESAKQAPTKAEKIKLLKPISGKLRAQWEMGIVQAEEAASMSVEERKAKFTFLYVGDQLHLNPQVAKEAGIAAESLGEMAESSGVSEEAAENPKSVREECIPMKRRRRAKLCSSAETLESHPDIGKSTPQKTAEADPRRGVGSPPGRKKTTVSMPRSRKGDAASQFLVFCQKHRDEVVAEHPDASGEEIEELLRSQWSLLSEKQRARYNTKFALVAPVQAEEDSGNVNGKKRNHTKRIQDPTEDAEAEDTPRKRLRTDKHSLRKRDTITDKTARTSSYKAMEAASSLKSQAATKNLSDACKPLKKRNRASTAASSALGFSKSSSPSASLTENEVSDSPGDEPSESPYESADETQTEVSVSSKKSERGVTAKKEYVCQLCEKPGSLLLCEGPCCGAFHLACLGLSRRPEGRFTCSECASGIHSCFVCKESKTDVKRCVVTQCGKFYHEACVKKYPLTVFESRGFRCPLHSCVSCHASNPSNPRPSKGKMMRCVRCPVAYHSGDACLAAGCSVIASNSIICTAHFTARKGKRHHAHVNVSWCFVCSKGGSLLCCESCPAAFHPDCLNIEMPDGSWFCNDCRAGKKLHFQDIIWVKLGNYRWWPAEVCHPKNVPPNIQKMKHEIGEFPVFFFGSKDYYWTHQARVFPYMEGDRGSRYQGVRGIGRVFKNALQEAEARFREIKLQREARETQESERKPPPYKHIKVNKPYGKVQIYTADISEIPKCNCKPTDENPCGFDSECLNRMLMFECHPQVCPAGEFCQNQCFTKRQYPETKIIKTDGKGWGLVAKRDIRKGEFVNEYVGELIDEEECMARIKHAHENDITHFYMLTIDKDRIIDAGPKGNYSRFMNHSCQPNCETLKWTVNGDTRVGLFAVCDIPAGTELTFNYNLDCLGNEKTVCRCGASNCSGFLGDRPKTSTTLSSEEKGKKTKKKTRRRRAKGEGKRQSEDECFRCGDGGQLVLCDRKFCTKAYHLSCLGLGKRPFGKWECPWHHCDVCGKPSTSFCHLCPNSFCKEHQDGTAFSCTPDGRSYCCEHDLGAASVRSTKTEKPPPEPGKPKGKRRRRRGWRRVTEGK
UniProt O95373, whole entry: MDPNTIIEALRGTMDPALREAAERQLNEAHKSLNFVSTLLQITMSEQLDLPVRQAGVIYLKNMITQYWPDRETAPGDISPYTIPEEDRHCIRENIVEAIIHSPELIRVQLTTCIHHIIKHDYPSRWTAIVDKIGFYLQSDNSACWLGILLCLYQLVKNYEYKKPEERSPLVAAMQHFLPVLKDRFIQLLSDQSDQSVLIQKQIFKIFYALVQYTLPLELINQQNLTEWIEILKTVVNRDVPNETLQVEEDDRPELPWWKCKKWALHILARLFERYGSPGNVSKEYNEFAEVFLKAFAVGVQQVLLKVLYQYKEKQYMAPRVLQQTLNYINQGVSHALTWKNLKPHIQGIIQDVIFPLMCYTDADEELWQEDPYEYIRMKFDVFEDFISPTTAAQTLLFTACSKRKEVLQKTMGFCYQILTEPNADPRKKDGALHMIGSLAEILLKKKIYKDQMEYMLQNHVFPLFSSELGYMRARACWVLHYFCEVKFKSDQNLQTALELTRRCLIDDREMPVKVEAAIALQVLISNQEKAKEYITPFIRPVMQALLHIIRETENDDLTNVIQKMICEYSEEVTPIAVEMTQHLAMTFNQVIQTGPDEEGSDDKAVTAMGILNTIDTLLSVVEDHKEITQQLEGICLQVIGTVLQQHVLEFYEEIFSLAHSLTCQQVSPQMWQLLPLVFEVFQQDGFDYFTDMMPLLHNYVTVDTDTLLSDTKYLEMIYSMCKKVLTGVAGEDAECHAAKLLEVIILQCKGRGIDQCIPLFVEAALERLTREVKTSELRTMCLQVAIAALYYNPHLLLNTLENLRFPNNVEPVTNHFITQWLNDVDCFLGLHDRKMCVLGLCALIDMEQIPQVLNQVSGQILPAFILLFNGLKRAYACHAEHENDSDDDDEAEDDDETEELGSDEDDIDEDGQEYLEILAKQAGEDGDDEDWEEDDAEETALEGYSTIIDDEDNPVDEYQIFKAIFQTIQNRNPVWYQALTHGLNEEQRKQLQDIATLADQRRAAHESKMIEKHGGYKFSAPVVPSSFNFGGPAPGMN
UniProt P06756, whole entry: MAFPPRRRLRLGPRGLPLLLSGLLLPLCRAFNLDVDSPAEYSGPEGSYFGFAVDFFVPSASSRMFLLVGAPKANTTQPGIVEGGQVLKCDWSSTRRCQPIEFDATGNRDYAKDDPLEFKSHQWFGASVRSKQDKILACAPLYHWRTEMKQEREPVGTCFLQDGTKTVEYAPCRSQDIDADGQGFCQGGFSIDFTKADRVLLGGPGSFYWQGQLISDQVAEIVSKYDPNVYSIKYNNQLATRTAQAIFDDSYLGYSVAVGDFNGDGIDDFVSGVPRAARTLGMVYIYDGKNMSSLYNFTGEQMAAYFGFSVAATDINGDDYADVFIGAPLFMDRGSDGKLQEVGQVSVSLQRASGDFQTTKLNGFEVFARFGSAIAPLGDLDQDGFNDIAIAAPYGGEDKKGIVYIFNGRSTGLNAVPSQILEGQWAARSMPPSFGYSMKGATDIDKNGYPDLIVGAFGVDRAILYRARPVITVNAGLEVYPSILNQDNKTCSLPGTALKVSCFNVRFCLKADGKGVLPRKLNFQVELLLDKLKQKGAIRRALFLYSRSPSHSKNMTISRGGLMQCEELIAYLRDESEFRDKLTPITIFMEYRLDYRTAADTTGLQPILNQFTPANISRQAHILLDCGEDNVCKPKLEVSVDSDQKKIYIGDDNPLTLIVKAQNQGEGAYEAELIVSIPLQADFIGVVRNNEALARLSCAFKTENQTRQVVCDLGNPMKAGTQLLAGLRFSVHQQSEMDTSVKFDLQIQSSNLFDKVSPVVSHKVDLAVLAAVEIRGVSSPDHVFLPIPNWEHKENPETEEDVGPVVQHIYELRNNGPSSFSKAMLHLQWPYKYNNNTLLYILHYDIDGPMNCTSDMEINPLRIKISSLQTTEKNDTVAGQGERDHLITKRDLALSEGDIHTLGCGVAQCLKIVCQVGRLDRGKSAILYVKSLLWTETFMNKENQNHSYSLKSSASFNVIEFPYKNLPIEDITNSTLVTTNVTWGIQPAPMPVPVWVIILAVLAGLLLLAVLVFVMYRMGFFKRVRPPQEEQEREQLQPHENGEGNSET
UniProt O76024: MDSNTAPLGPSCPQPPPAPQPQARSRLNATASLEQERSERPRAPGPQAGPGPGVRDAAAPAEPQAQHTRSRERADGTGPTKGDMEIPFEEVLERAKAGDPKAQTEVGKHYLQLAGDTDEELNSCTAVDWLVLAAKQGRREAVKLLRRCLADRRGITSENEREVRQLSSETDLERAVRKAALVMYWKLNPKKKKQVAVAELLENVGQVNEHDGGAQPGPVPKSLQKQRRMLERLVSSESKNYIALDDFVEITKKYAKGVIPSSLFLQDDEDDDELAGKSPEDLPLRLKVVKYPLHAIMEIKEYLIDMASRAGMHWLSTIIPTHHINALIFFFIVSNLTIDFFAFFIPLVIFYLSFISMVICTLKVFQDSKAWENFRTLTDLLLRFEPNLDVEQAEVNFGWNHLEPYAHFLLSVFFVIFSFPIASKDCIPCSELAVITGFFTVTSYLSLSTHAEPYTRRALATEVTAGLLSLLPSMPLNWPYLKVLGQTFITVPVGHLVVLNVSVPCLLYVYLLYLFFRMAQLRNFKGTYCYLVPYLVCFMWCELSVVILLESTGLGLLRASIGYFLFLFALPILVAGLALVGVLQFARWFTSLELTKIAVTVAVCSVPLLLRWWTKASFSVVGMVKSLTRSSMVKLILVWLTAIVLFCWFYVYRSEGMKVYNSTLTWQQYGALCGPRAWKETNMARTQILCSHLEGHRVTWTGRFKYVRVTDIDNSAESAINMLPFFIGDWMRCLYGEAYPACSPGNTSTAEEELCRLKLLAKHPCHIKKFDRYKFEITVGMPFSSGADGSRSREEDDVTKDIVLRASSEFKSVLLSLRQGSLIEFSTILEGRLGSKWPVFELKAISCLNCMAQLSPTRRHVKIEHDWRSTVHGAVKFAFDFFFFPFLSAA
UniProt P04075: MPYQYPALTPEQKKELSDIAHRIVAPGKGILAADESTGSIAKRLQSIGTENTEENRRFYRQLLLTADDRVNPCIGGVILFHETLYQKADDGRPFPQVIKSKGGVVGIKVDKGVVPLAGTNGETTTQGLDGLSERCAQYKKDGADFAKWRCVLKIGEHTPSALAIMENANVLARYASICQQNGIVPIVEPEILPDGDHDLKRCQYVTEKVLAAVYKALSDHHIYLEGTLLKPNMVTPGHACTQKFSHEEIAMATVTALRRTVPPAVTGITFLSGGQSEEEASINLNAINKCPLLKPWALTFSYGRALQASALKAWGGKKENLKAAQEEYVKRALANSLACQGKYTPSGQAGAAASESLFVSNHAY
UniProt P02792: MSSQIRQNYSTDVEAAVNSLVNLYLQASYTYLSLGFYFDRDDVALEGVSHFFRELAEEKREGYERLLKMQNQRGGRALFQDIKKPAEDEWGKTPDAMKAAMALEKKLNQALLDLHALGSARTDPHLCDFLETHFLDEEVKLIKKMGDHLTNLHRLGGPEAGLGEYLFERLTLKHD

The text below walks through data of the supplement of paper PMC12595434, “Development of retinoid nuclear receptor pathway antagonists through targeting aldehyde dehydrogenase 1A3” (iScience, 2025).

Compound in this assay: CCc1cnccc1C(=O)Nc1cc2c(cc1F)NC(=O)CC2
The assay is described as follows: melting temperature shift (DMSO Tm minus MBE1-treated Tm) in cellular thermal proteome profiling; higher = less thermal stabilization by MBE1 (negative = stabilized by MBE1). As to conditions: A375.

STAMBP (UniProt O95630): the melting temperature shift was -0.579 °C (MBE1 concentration: 100 nM) and -0.386 °C (MBE1 concentration: 1 uM).

As for GFPT2 (UniProt O94808), the melting temperature shift was -0.957 °C (MBE1 concentration: 100 nM) and 0.714 °C (MBE1 concentration: 1 uM).

Regarding UniProt O95478, the melting temperature shift was -1.61 °C (MBE1 concentration: 100 nM) and -0.256 °C (MBE1 concentration: 1 uM).

Turning to ARL6IP5 (UniProt O75915), the melting temperature shift reads like this: (MBE1 concentration: 100 nM) -0.858 °C; (MBE1 concentration: 1 uM) -0.495 °C.

Take IKBKAP (UniProt O95163): the melting temperature shift was 0.427 °C (MBE1 concentration: 100 nM) and 0.653 °C (MBE1 concentration: 1 uM).

Turning to UniProt P00918, the melting temperature shift is -5.03 °C (MBE1 concentration: 100 nM) and 1.21 °C (MBE1 concentration: 1 uM).

Consider WDR47 (UniProt O94967), for which the melting temperature shift amounted to 0.0805 °C (MBE1 concentration: 100 nM) and 0.335 °C (MBE1 concentration: 1 uM).

Regarding UBE4B (UniProt O95155), the melting temperature shift came out at 0.543 °C (MBE1 concentration: 100 nM) and 0.263 °C (MBE1 concentration: 1 uM).

As to DCTN3 (UniProt O75935), the melting temperature shift runs as follows: (MBE1 concentration: 100 nM) -0.0122 °C; (MBE1 concentration: 1 uM) 0.299 °C.

On to BCL10 (UniProt O95999), for which the melting temperature shift (MBE1 concentration: 100 nM) was -0.721 °C and the melting temperature shift (MBE1 concentration: 1 uM) is -0.69 °C.

As to UniProt P04350, the melting temperature shift is, setting by setting: (MBE1 concentration: 100 nM) 0.531 °C; (MBE1 concentration: 1 uM) 1.94 °C.

In the case of UniProt P01112, the melting temperature shift runs as follows: (MBE1 concentration: 100 nM) -0.34 °C; (MBE1 concentration: 1 uM) -0.826 °C.

For CST3 (UniProt P01034), the melting temperature shift was -1.47 °C (MBE1 concentration: 100 nM) and -1.94 °C (MBE1 concentration: 1 uM).

As for TYMS (UniProt P04818), the melting temperature shift was -0.579 °C (MBE1 concentration: 100 nM) and -0.704 °C (MBE1 concentration: 1 uM).

For NUDT3 (UniProt O95989), the melting temperature shift was -1.73 °C (MBE1 concentration: 100 nM) and -2.44 °C (MBE1 concentration: 1 uM).

Regarding UniProt P01023, the melting temperature shift is, setting by setting: (MBE1 concentration: 100 nM) -1.49 °C; (MBE1 concentration: 1 uM) 1.06 °C.

In the case of PROSC (UniProt O94903), the melting temperature shift (MBE1 concentration: 100 nM) is -0.047 °C and the melting temperature shift (MBE1 concentration: 1 uM) is -0.586 °C.

For SEC24D (UniProt O94855), the melting temperature shift (MBE1 concentration: 100 nM) came out at 0.812 °C and the melting temperature shift (MBE1 concentration: 1 uM) was determined as 0.977 °C.

With URI1 (UniProt O94763), the melting temperature shift reads like this: (MBE1 concentration: 100 nM) -1.25 °C; (MBE1 concentration: 1 uM) 0.0794 °C.

For the target NRAS (UniProt P01111), the melting temperature shift is, setting by setting: (MBE1 concentration: 100 nM) 2.8 °C; (MBE1 concentration: 1 uM) -1.54 °C.

On to DDAH1 (UniProt O94760), for which the melting temperature shift (MBE1 concentration: 100 nM) is -0.281 °C and the melting temperature shift (MBE1 concentration: 1 uM) came out at 0.177 °C.

As to POP4 (UniProt O95707), the melting temperature shift reads like this: (MBE1 concentration: 100 nM) 1.51 °C; (MBE1 concentration: 1 uM) 1.81 °C.

On to LDHA (UniProt P00338), for which the melting temperature shift runs as follows: (MBE1 concentration: 100 nM) -1.83 °C; (MBE1 concentration: 1 uM) -1.81 °C.

Regarding NADK (UniProt O95544), the melting temperature shift (MBE1 concentration: 100 nM) was -0.196 °C and the melting temperature shift (MBE1 concentration: 1 uM) stood at 2.75 °C.

For the target UniProt P06744, the melting temperature shift is -0.288 °C (MBE1 concentration: 100 nM) and -0.00671 °C (MBE1 concentration: 1 uM).

For PRKD3 (UniProt O94806), the melting temperature shift was determined as 1.2 °C (MBE1 concentration: 100 nM) and 0.794 °C (MBE1 concentration: 1 uM).

Turning to LDLR (UniProt P01130), the melting temperature shift was -5.96 °C (MBE1 concentration: 100 nM) and 0.511 °C (MBE1 concentration: 1 uM).

Consider GOSR1 (UniProt O95249), for which the melting temperature shift reads like this: (MBE1 concentration: 100 nM) -1.23 °C; (MBE1 concentration: 1 uM) -0.336 °C.

For RECQL5 (UniProt O94762), the melting temperature shift was -0.352 °C (MBE1 concentration: 100 nM) and -0.429 °C (MBE1 concentration: 1 uM).

Take UniProt O96007: the melting temperature shift reads like this: (MBE1 concentration: 100 nM) -6.46 °C; (MBE1 concentration: 1 uM) 0.976 °C.

With GABARAP (UniProt O95166), the melting temperature shift by setting is: (MBE1 concentration: 100 nM) -0.798 °C; (MBE1 concentration: 1 uM) -1.4 °C.

On to CLSTN1 (UniProt O94985), for which the melting temperature shift came out at 3.24 °C (MBE1 concentration: 100 nM) and 3.32 °C (MBE1 concentration: 1 uM).

For PAK4 (UniProt O96013), the melting temperature shift amounted to 0.0366 °C (MBE1 concentration: 100 nM) and 0.0977 °C (MBE1 concentration: 1 uM).

Take ATP1B1 (UniProt P05026): the melting temperature shift was -0.747 °C (MBE1 concentration: 100 nM) and -1.7 °C (MBE1 concentration: 1 uM).

On to ETHE1 (UniProt O95571), for which the melting temperature shift (MBE1 concentration: 100 nM) was -0.0472 °C and the melting temperature shift (MBE1 concentration: 1 uM) was -0.189 °C.

In the case of RPN1 (UniProt P04843), the melting temperature shift (MBE1 concentration: 100 nM) was -0.355 °C and the melting temperature shift (MBE1 concentration: 1 uM) worked out at 0.0805 °C.

For CDS2 (UniProt O95674), the melting temperature shift runs as follows: (MBE1 concentration: 100 nM) 0.627 °C; (MBE1 concentration: 1 uM) 0.705 °C.

Turning to CRYZL1 (UniProt O95825), the melting temperature shift runs as follows: (MBE1 concentration: 100 nM) 0.406 °C; (MBE1 concentration: 1 uM) -0.52 °C.

On to LATS1 (UniProt O95835), for which the melting temperature shift is, setting by setting: (MBE1 concentration: 100 nM) -1.27 °C; (MBE1 concentration: 1 uM) 0.327 °C.

As for UniProt P00414, the melting temperature shift by setting is: (MBE1 concentration: 100 nM) 0.496 °C; (MBE1 concentration: 1 uM) -2.35 °C.

In the case of HEXA (UniProt P06865), the melting temperature shift was -1.83 °C (MBE1 concentration: 100 nM) and -0.785 °C (MBE1 concentration: 1 uM).

With SEC31A (UniProt O94979), the melting temperature shift is 0.153 °C (MBE1 concentration: 100 nM) and -0.354 °C (MBE1 concentration: 1 uM).

Take BCAS2 (UniProt O75934): the melting temperature shift reads like this: (MBE1 concentration: 100 nM) -0.847 °C; (MBE1 concentration: 1 uM) -0.805 °C.

With SVIL (UniProt O95425), the melting temperature shift is, setting by setting: (MBE1 concentration: 100 nM) -1.14 °C; (MBE1 concentration: 1 uM) -1.11 °C.

As for UniProt O96028, the melting temperature shift amounted to 0.0384 °C (MBE1 concentration: 100 nM) and 0.0192 °C (MBE1 concentration: 1 uM).

Regarding NFAT5 (UniProt O94916), the melting temperature shift reads like this: (MBE1 concentration: 100 nM) -0.0794 °C; (MBE1 concentration: 1 uM) 0.293 °C.

Consider ZFPL1 (UniProt O95159), for which the melting temperature shift (MBE1 concentration: 100 nM) was -0.94 °C and the melting temperature shift (MBE1 concentration: 1 uM) is -1.2 °C.

In the case of UniProt P06493, the melting temperature shift by setting is: (MBE1 concentration: 100 nM) 0.907 °C; (MBE1 concentration: 1 uM) 0.458 °C.

On to LSM8 (UniProt O95777), for which the melting temperature shift (MBE1 concentration: 100 nM) is -6.18 °C and the melting temperature shift (MBE1 concentration: 1 uM) amounted to 1.82 °C.

As for P30462 (UniProt P01889), the melting temperature shift is -2.8 °C (MBE1 concentration: 100 nM) and -3.28 °C (MBE1 concentration: 1 uM).

As to IPO7 (UniProt O95373), the melting temperature shift is, setting by setting: (MBE1 concentration: 100 nM) 0.421 °C; (MBE1 concentration: 1 uM) 0.537 °C.

Consider ITGAV (UniProt P06756), for which the melting temperature shift (MBE1 concentration: 100 nM) is -4.97 °C and the melting temperature shift (MBE1 concentration: 1 uM) is -3.3 °C.

Turning to PCCB (UniProt P05166), the melting temperature shift (MBE1 concentration: 100 nM) was -1.64 °C and the melting temperature shift (MBE1 concentration: 1 uM) was 0.657 °C.

UFL1 (UniProt O94874): the melting temperature shift worked out at 0.409 °C (MBE1 concentration: 100 nM) and 0.263 °C (MBE1 concentration: 1 uM).

Regarding WFS1 (UniProt O76024), the melting temperature shift (MBE1 concentration: 100 nM) is 0.543 °C and the melting temperature shift (MBE1 concentration: 1 uM) turned out to be 0.867 °C.

UniProt O95059: the melting temperature shift reads like this: (MBE1 concentration: 100 nM) -2.4 °C; (MBE1 concentration: 1 uM) -1.74 °C.

Consider ALDOA (UniProt P04075), for which the melting temperature shift was -2.35 °C (MBE1 concentration: 100 nM) and -1.25 °C (MBE1 concentration: 1 uM).

On to MPC2 (UniProt O95563), for which the melting temperature shift is -2.1 °C (MBE1 concentration: 100 nM) and 0.00611 °C (MBE1 concentration: 1 uM).

As to UniProt P02792, the melting temperature shift is -4.09 °C (MBE1 concentration: 100 nM) and -4.09 °C (MBE1 concentration: 1 uM).
